# Data from article PMC9262907, “Modulating mitofusins to control mitochondrial function and signaling” (Nature Communications, 2022).
# These are yes or no findings as the source states them, for the method shown. Some entries that bind do so weakly or less than the wild type. Where a sequence is shown, tags or fusion partners need not be part of it.
# B1: mitofusin-2 (MFN2) of MEF mitochondria (natural protein, mouse (endogenous in MEFs), UniProt Q80U63 1-757, looked up)
# chain: MSLLFSRCNSIVTVKKDKRHMAEVNASPLKHFVTAKKKINGIFEQLGAYIQESASFLEDTHRNTELDPVTTEEQVLDVKGYLSKVRGISEVLARRHMKVAFFGRTSNGKSTVINAMLWDKVLPSGIGHTTNCFLRVGGTDGHEAFLLTEGSEEKKSVKTVNQLAHALHQDEQLHAGSMVSVMWPNSKCPLLKDDLVLMDSPGIDVTTELDSWIDKFCLDADVFVLVANSESTLMQTEKQFFHKVSERLSRPNIFILNNRWDASASEPEYMEEVRRQHMERCTSFLVDELGVVDRAQAGDRIFFVSAKEVLSARVQKAQGMPEGGGALAEGFQVRMFEFQNFERQFEECISQSAVKTKFEQHTVRAKQIAEAVRLIMDSLHIAAQEQRVYCLEMREERQDRLRFIDKQLELLAQDYKLRIKQITEEVERQVSTAMAEEIRRLSVLVDEYQMDFHPSPVVLKVYKNELHRHIEEGLGRNLSDRCSTAIASSLQTMQQDMIDGLKPLLPVSMRNQIDMLVPRQCFSLSYDLNCDKLCADFQEDIEFHFSLGWTMLVNRFLGPKNSRRALLGYSDQVQRPLPLTPANPSMPPLPQSSLTQEELMVSMVTGLASLTSRTSMGILVVGGVVWKAVGWRLIALSFGLYGLLYVYERLTWTTKAKERAFKRQFVEYASEKLQLIISYTGSNCSHQVQQELSGTFAHLCQQVDITRDNLEQEIAAMNKKVEALDSLQSRAKLLRNKAGWLDSELNMFTHQYLQPSR
# notes: mitofusin-2 (MFN2), endogenous in mouse embryonic fibroblasts, detected with an anti-MFN2 antibody; source: endogenous, mitochondria isolated from MEFs, digitonin lysate
# Target: mitofusin-2 (MFN2) of MEF mitochondria (mouse (endogenous in MEFs)) (UniProt Q80U63)
# Test: native gel or EMSA; BN-PAGE of digitonin lysates of mitochondria isolated from MEFs, incubated with 2 mM GTP at 37 °C for 30 min (also with 10 μM MASM7 or 40 μM MFI8); blot with anti-MFN2
binder,measurement,value
B1,binding,binds
